Data published in the supplement of paper PMC12009310.
Structures can show the parent of a compound that is named as a salt. ± gives the standard deviation of the averaged measurements. This is one part of the list. Part of the spread comes from offsets between plates or batches.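 The cells are a mouse kidney inner medullary collecting duct line, silenced either for the ciliary gene Rpgrip1l or with a non-targeting control siRNA.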

These compounds were tested on mIMCD3 (assay: robust z score of cell number vs plate controls; higher = more cells (less cytotoxic)). Conditions: 10 µM; 48 h; siRNA: siRpgrip1l.

Point of comparison: `N#Cc1ccc(NCCNCC(=O)N2CCC[C@H]2C#N)nc1` [NVP DPP 728 dihydrochloride], “robust z score of cell number” value -7.6 ± 3.3. Against it:
- COc1ccc(NC(=O)c2cc(OCCCN(C)C)nn2Cc2ccccc2)cc1 [CFM 1571 hydrochloride] — within error, -10.8 ± 0.6
- CC(=O)N(OCc1ccccc1)[C@H]1c2cc(C#N)ccc2OC(C)(C)[C@H]1O — within error, -18.4 ± 21
- Cc1ccc(/C=N/NC(=O)c2ccccc2Oc2ccccc2)o1 — within error, -25 ± 24
- Cc1ccc2c(c1)C(=O)C1(O)CCN(c3ccccc3)C1=N2 (racemic) [(±)-Blebbistatin] — within error, -5.85 ± 6.5
- CCc1ccc2c(-c3cccc(Cl)c3)nc(=O)n(CC)c2n1 — higher, -0.894 ± 2
- CC(C)NC[C@H](O)COc1cccc2[nH]ccc12 [(S)-(-)-Pindolol] — within error, -11.1 ± 7.1
- CC1(C)Oc2ccc(C#N)cc2[C@@H](N2CCCC2=O)[C@@H]1O [Levcromakalim] — within error, -26.4 ± 32
- Nc1nc2ccc(OC(F)(F)F)cc2s1 [Riluzole hydrochloride] — lower, -39.2 ± 7.8
- CC1(C)NC(=O)N(c2ccc([N+](=O)[O-])c(C(F)(F)F)c2)C1=O [Nilutamide] — within error, -12 ± 10
- OCc1cc(C(O)CNCCCCCCOCCCCc2ccccc2)ccc1O (centres undefined) [Salmeterol] — within error, -52.4 ± 54
- c1cc2c(cc1C1CCCCC1)c1c3n2CCNC3CCC1 (centres undefined) [Tetrindole mesylate] — lower, -55.9 ± 18
- O=C(O)c1ccc(-c2c[nH]c3ncc(-c4ccccc4)cc23)cc1C1CCCC1 — within error, -31.7 ± 31
- CNC(=O)[C@H]1O[C@@H](n2cnc3c(NCc4cccc(I)c4)nc(Cl)nc32)[C@H](O)[C@@H]1O — lower, -42.1 ± 28
